The comparison behind a weaker result is the experiment's own reference, which may not be listed here. Protein sequences can lack the tags named with them.
Target: T1, LiRecT K191A/F194A (Listeria innocua CLIP 11262) (UniProt Q92FL9)
T1 sequence (looked up): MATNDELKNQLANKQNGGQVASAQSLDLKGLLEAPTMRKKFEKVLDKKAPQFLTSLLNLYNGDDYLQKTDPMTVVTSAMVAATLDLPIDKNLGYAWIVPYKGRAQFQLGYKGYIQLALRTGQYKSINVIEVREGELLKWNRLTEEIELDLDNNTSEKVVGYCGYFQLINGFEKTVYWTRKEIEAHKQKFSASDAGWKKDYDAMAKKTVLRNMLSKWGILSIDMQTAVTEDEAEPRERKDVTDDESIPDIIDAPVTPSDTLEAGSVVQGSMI
Assay: EMSA
Details: EMSA: PBS pH 7.4 (or KH2PO4/10 mM MgCl2 pH 6.0), 3.6 or 5 uM protein, 25 uM nt DNA, 37 C 15 min per strand, 0.8% agarose 1x TBE; recombinant protein; residues 1-271; protein details: N-terminal 6His vector tag (20 aa) retained; label: 5'-Cy3,5'-Cy5

## GCGGATGGCTTAGAGCAGAATCGCCCTGCATAGCTCGATTTTTGCGGATG / CCATCCGCAAAAATCGAGCTATGCAGGGCGATTCTGCTCTAAGCCATCCG [50-mer duplex intermediate (sequential addition)]
  binding result: binds more weakly

Reference: article PMC9772228, “Structure of a RecT/Redβ family recombinase in complex with a duplex intermediate of DNA annealing”
